Source: patent publication US20020058798A1 (YEDA RESEARCH AND DEVELOPMENT, published 2002)
Results are given in words; binding and its absence hold for the method and conditions named. Some binding calls cover weakened binding; strength is not graded here. Blank lines part the entries; values can stand above or below the binder they belong to.

Amino acid sequences for entries named in this document (tags omitted). A change or cut given only in a name is not applied to a line headed by its entry.
UniProt Q13158: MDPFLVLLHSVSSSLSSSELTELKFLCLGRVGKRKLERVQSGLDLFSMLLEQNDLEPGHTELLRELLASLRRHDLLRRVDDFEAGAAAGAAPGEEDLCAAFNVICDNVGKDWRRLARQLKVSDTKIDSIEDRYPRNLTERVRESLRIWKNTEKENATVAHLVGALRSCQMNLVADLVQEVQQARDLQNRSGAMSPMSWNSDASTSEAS

How the values were obtained:
[1] = target: MORT-1 fragment, residues 130-245 (human) (UniProt Q13158); assay: yeast two-hybrid beta-galactosidase filter assay (SFY526); row = Gal4 DNA-binding-domain hybrid, column = activation-domain hybrid; ++ = strong color within 30 min
[2] = target: MORT-1 fragment, residues 130-245 (human) (UniProt Q13158); assay: yeast two-hybrid beta-galactosidase filter assay (SFY526); row = Gal4 DNA-binding-domain hybrid, column = activation-domain hybrid; + = strong color within 90 min

binding [1]: binds
B1: Mouse Fas-IC, full (receptor, UniProt P25446 187-327, looked up)
chain: RKYRKRKCWKRRQDDPESRTSSRETIPMNASNLSLSKYIPRIAEDMTIQEAKKFARENNIKEGKIDEIMHDSIQDTAEQKVQLLLCWYQSHGKSDAYQDLIKGLKKAECRRTLDKFQDMVQKDLGKSTPDTGNENEGQCLE

binding [2]: binds
B2: Mouse Fas-IC 197-306 (receptor, UniProt P25446 218-327, looked up)
chain: NLSLSKYIPRIAEDMTIQEAKKFARENNIKEGKIDEIMHDSIQDTAEQKVQLLLCWYQSHGKSDAYQDLIKGLKKAECRRTLDKFQDMVQKDLGKSTPDTGNENEGQCLE
